# At least one structure is not confirmed: it was looked up by name or label, or the drawing left a doubt.
# Tested on: PDS gene crPDS1 target site
# Experiment: Mutation genotypes at the crPDS1 target in regenerated N. benthamiana plants after antiviral treatment (HTS)
# Assay type: cell-based
# Conditions: PDSa and PDSb
# Source text: Plant regeneration through culturing the leaf tissues infected with the TSWV vectors are usually ineffective in eliminating the virus. The embodiment investigated the effect of antiviral treatment during plant regeneration on virus clearance using leaf tissues infected with the TSWV-Cas12a-crRNA vector targeting the N. benthamiana crPDS1 site. […] After 35 days of culturing, explants together with induced callus were transferred to an induction medium without antiviral agents until day 55, and then the regenerated seedlings were transferred to a rooting medium. Three independent biological replicates were included in each group, and 30 plants were randomly selected in each biological replicate of each group for subsequent analysis. Total RNA was extracted from M0 regenerated seedlings, and RT-PCR was conducted using the TSWV N specific primers N/F ([…]; SEQ ID NO: 131) and N/R ([…]; SEQ ID NO: 132) to examine the virus clearance rate. The primers Nb/actin/F ([…]; SEQ ID NO: 133) and Nb/actin/R ([…]; SEQ ID NO: 134) for amplification of the NbActin cDNA served as an internal control. […] In contrast, the mock treatment had only 4.4% of virus-free regenerated plants.
# To further evaluate the effect of drug treatment on the efficiency of gene editing in the regenerated plants, DNA sequences containing the target loci were PCR amplified using specific primers (SEQ ID NO: 70 and 71), and the resulting amplicons were high-throughput sequenced. The mutation type of each plant was analyzed, and the editing efficiency of each group was calculated. We used the following definitions to call the putative genotype: wild-type (WT) with editing efficiency (indels %) of 0-10.0%; chimeric (Chi) with 10%<indels %≤35.0%; heterozygous (He) with 35.0%<indels %≤80.0%, i.e., one allele is edited at the target site but the other allele is wild-type; homozygous (Ho) with indels % between 80.0% and 100.0% if both alleles have the same type of editing, and biallelic (Bi) if two alleles produced two different types of editing.
smiles,measurement,setting,value
CCC(CC)COC(=O)[C@H](C)N[P@](=O)(OC[C@H]1O[C@@](C#N)(c2ccc3c(N)ncnn23)[C@H](O)[C@@H]1O)Oc1ccccc1 [remdesivir],proportion of Chi types compared to the mock group,M0 plants,decreased in both homoeologs
same,proportion of Ho/Bi types compared to the mock group,M0 plants,slightly increased in the target of PDSb gene
same,proportion of M0 plants with mutations at the target site,"ribavirin 40 mg/L, favipiravir 40 mg/L, remdesivir 1.2 mg/L",only a slight increase over the mock group
